# Measured values taken from article PMC4426631, “Insect antimicrobial peptides show potentiating functional interactions against Gram-negative bacteria” (Proceedings of the Royal Society B: Biological Sciences, 2015).
# By UniProt entry, the sequences of proteins in these tests, tags left out.
# UniProt P0A6Y8: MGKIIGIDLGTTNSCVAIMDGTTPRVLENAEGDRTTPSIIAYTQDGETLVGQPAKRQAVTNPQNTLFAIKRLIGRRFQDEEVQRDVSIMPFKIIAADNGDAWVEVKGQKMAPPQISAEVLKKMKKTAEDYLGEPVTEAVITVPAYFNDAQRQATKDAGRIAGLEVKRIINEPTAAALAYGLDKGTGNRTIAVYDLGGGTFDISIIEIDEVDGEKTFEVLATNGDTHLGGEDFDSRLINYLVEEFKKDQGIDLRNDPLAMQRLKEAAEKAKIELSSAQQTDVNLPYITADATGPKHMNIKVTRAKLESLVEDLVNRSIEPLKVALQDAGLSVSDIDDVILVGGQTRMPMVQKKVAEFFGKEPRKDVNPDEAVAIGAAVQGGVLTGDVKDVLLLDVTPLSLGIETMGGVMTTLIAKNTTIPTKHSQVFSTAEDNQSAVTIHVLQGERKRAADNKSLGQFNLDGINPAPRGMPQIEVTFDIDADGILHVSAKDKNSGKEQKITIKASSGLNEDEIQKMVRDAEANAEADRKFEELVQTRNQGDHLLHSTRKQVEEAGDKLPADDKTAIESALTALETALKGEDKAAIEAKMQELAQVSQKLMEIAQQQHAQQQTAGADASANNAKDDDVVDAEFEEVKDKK
# These are yes or no findings as the source states them, for the method shown.
# How the values were obtained:
# [1] = molecular target: T1, metalnikowin I from Palomena prasina, fluorescein-labelled (Palomena prasina) (UniProt P80408); experiment: condition: DnaK–BHQ10 dilution series 0.8–13 000 nmol l^−1; FRET or BRET; FRET-based quenching assay in solution: fluorescein-modified peptide (50 μl, 1.3 nmol l^−1) mixed with a serial dilution of DnaK–BHQ10 (50 μl, 0.8–13 000 nmol l^−1, 1 : 4 dilution series) in modification buffer (20 mmol l^−1 Na2HPO4, 20 mmol l^−1 KH2PO4, 5 mmol l^−1 MgCl2, 150 mmol l^−1 KCl, pH 7.4), black 384-well plate, incubated 2 h; Kd by nonlinear regression; both purified
# T1 sequence (peptide, fluorescein-modified): VDKPDYRPRPRPPNM
# [2] = molecular target: T2, metalnikowin IIA from Palomena prasina, fluorescein-labelled (Palomena prasina) (UniProt P80409); experiment: as above
# T2 sequence (peptide, fluorescein-modified): VDKPDYRPRPWPRPN
substance,measurement,setting,value
Escherichia coli chaperone DnaK labelled with BHQ10 (DnaK–BHQ10) (from UniProt P0A6Y8 1-638),binding,[1],no binding
same,binding,[2],no binding
